Measurements taken from PMC4881552.
Results are given in words; binding and its absence hold for the method and conditions named. In cells and extracts the contact can be indirect. Some binding calls cover weakened binding; strength is not graded here.

T1: PEDF receptor (PEDF-R) (mouse (endogenous in MC3T3-E1)) (UniProt Q8BJ56)
T1 sequence: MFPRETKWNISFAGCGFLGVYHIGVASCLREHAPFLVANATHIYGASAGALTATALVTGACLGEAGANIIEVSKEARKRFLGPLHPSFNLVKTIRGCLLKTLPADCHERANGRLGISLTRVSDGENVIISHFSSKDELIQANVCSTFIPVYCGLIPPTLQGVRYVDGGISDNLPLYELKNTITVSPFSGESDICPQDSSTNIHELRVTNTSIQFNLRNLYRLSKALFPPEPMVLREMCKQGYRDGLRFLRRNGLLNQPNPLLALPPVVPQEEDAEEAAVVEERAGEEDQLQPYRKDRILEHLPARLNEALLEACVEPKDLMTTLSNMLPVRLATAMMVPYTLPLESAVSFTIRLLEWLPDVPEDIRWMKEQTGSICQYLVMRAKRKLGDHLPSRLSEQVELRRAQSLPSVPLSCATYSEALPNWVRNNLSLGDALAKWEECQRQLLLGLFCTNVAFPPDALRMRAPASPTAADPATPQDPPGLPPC

T2: Recombinant mouse PEDF (pigment epithelium-derived factor) (mouse) (UniProt P97298)
T2 sequence: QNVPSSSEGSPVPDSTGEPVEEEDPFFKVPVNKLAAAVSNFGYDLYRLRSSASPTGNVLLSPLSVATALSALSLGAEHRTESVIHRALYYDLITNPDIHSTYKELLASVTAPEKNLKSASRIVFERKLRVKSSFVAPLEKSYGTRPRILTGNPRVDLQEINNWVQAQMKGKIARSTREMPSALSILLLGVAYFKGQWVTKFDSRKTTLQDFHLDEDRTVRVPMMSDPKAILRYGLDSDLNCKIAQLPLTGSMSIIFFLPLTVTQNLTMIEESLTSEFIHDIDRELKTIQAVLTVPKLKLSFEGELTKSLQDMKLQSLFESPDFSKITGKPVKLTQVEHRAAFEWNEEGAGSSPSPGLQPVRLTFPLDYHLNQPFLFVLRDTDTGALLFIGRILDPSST


Legend:
[1] = molecular target: T1, PEDF receptor (PEDF-R) (mouse (endogenous in MC3T3-E1)); test: co-IP; MC3T3-E1 cells treated with rPEDF (10 nmol/L; 12 h by the legend, 24 h by the text); membrane protein extracts immunoprecipitated with anti-PEDF-R antibody, blotted for PEDF; only the binder purified
[2] = molecular target: T2, Recombinant mouse PEDF (pigment epithelium-derived factor) (mouse); test: co-IP; MC3T3-E1 cells treated with rPEDF (10 nmol/L; 12 h by the legend, 24 h by the text); membrane protein extracts immunoprecipitated with anti-PEDF antibody, blotted for PEDF-R; only the target purified

| Binder | binding [1] | binding [2] |
| --- | --- | --- |
| Recombinant mouse PEDF (pigment epithelium-derived factor) (ligand, UniProt P97298 20-417) QNVPSSSEGSPVPDSTGEPVEEEDPFFKVPVNKLAAAVSNFGYDLYRLRSSASPTGNVLLSPLSVATALSALSLGAEHRTESVIHRALYYDLITNPDIHSTYKELLASVTAPEKNLKSASRIVFERKLRVKSSFVAPLEKSYGTRPRILTGNPRVDLQEINNWVQAQMKGKIARSTREMPSALSILLLGVAYFKGQWVTKFDSRKTTLQDFHLDEDRTVRVPMMSDPKAILRYGLDSDLNCKIAQLPLTGSMSIIFFLPLTVTQNLTMIEESLTSEFIHDIDRELKTIQAVLTVPKLKLSFEGELTKSLQDMKLQSLFESPDFSKITGKPVKLTQVEHRAAFEWNEEGAGSSPSPGLQPVRLTFPLDYHLNQPFLFVLRDTDTGALLFIGRILDPSST | binds | – |
| PEDF receptor (PEDF-R) (receptor, UniProt Q8BJ56 1-486) MFPRETKWNISFAGCGFLGVYHIGVASCLREHAPFLVANATHIYGASAGALTATALVTGACLGEAGANIIEVSKEARKRFLGPLHPSFNLVKTIRGCLLKTLPADCHERANGRLGISLTRVSDGENVIISHFSSKDELIQANVCSTFIPVYCGLIPPTLQGVRYVDGGISDNLPLYELKNTITVSPFSGESDICPQDSSTNIHELRVTNTSIQFNLRNLYRLSKALFPPEPMVLREMCKQGYRDGLRFLRRNGLLNQPNPLLALPPVVPQEEDAEEAAVVEERAGEEDQLQPYRKDRILEHLPARLNEALLEACVEPKDLMTTLSNMLPVRLATAMMVPYTLPLESAVSFTIRLLEWLPDVPEDIRWMKEQTGSICQYLVMRAKRKLGDHLPSRLSEQVELRRAQSLPSVPLSCATYSEALPNWVRNNLSLGDALAKWEECQRQLLLGLFCTNVAFPPDALRMRAPASPTAADPATPQDPPGLPPC | – | binds |
